Reference: the supplement of paper PMC10849652
Some of the results follow.

Protein sequences, listed by entry. Tags and fused reporters are not part of them. Lines headed by an entry give the natural chain unless they say otherwise; changes in a name come on top.
UniProt Q5VT25: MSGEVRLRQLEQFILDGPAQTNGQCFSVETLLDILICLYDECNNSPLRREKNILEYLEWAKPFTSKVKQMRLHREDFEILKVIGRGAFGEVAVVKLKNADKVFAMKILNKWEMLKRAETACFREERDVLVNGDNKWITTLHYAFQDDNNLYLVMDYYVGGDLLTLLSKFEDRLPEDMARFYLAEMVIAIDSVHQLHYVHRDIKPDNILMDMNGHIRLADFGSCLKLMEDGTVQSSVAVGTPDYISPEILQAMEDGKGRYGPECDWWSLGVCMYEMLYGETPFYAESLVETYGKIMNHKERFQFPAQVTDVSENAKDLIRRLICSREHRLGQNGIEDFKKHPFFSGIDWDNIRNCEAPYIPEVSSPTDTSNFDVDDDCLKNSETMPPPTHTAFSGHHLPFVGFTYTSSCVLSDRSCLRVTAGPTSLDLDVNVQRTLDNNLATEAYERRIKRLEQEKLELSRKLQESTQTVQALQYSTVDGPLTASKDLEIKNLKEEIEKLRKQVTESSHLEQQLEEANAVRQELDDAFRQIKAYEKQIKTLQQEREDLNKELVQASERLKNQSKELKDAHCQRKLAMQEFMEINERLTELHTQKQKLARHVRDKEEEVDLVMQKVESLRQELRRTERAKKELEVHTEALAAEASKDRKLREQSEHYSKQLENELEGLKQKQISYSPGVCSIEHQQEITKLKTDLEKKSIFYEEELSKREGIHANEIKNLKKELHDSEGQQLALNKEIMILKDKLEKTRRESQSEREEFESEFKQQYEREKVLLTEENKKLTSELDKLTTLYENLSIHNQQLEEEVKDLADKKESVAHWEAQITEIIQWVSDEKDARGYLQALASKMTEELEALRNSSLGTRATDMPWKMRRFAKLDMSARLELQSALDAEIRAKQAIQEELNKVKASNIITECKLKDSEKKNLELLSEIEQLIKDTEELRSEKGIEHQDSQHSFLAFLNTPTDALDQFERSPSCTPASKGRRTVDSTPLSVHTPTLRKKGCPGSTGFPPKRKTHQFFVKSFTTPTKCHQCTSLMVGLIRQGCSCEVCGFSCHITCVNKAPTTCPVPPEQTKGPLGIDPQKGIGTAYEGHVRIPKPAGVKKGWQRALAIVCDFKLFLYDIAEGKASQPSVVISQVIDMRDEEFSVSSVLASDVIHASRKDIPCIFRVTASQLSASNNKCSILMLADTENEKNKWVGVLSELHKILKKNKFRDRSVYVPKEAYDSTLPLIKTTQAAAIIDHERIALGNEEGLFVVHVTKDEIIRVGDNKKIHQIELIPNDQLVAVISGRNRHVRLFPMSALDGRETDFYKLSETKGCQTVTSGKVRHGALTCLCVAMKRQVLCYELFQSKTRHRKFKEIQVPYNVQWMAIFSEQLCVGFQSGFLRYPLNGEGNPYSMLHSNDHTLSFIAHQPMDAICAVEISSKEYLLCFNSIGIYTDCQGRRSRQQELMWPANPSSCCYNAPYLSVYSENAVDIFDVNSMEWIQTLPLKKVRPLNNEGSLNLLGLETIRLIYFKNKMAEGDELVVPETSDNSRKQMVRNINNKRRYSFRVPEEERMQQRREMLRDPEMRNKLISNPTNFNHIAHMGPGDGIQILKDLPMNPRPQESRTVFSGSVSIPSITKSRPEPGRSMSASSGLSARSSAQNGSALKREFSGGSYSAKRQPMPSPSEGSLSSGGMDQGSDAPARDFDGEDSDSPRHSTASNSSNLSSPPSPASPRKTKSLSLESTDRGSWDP
UniProt O00748: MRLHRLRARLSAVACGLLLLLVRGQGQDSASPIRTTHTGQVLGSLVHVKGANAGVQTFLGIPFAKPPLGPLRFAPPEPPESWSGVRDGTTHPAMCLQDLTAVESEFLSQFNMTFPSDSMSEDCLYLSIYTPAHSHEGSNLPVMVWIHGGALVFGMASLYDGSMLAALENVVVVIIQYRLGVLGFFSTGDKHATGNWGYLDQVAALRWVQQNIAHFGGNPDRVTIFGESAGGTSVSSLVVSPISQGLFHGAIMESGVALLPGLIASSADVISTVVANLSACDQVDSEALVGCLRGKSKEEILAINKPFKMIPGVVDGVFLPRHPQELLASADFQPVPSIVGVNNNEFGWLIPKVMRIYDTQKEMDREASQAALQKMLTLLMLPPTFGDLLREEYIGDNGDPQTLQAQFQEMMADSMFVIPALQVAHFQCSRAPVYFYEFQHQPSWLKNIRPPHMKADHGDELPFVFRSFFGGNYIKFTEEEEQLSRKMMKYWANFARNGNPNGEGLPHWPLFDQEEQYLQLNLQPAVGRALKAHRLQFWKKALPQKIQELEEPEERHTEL
UniProt Q9C0F1: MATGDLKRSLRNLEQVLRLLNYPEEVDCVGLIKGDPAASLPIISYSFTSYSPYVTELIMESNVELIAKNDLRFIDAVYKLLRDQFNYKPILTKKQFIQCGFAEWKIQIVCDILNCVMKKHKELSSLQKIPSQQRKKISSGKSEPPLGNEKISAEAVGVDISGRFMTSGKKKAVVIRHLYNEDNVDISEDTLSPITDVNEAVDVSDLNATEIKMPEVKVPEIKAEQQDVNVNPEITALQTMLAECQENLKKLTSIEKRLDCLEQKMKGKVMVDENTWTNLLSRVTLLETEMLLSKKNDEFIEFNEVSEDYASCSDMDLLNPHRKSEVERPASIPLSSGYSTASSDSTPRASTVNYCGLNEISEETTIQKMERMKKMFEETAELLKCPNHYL
UniProt Q8TAP6: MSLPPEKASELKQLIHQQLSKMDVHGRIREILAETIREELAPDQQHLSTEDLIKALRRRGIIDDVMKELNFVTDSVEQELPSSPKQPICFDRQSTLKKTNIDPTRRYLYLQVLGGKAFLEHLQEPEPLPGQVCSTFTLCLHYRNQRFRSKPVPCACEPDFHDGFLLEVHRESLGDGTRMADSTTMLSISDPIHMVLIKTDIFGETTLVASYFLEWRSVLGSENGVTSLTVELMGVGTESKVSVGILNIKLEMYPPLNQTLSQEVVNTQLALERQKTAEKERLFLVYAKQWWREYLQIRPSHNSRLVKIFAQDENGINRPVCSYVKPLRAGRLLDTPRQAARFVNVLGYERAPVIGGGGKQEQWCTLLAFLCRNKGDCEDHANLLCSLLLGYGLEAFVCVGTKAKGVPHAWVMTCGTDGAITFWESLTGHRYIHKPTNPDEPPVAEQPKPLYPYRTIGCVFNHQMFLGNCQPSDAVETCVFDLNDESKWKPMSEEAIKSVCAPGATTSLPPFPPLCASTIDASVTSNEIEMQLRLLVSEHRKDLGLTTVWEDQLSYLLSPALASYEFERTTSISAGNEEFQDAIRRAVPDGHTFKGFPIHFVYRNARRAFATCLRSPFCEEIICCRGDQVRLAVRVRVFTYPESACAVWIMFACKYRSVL
UniProt Q8IW35: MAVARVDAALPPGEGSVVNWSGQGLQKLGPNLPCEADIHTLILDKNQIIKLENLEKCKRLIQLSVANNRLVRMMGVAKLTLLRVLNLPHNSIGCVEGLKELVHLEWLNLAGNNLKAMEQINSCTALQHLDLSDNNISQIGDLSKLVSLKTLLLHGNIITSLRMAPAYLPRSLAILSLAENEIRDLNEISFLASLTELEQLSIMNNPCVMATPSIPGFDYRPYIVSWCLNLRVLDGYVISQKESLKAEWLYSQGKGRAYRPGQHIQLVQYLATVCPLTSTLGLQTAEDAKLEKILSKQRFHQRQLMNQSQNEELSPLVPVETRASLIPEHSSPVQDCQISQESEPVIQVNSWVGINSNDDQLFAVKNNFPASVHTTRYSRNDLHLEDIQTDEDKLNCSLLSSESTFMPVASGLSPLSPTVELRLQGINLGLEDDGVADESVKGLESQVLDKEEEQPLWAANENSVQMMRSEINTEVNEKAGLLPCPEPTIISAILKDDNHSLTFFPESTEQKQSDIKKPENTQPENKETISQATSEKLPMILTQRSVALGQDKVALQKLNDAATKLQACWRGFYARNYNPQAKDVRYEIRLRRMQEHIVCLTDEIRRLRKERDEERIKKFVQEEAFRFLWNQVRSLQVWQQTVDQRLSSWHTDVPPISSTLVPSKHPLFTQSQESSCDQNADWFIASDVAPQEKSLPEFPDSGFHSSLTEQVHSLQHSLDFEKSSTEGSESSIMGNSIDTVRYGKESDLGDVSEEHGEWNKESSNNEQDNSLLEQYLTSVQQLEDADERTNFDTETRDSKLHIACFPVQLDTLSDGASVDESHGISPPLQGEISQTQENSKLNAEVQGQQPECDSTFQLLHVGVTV
UniProt P42773: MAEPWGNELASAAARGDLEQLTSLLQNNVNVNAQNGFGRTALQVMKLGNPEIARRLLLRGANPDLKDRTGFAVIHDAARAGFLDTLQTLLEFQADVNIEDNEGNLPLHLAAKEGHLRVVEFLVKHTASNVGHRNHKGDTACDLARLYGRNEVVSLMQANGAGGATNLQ
UniProt Q9NRR3: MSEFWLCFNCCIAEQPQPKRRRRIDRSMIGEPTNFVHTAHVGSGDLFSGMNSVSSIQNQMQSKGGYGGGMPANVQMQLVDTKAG
UniProt Q9BU64: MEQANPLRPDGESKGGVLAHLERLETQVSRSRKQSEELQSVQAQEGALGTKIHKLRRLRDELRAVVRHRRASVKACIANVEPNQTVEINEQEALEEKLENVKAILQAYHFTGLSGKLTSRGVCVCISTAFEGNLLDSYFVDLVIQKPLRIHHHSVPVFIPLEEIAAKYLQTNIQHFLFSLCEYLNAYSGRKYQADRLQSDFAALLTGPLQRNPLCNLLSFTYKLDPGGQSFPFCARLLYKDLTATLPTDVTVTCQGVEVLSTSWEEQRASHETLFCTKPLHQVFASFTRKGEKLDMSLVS
UniProt P50613: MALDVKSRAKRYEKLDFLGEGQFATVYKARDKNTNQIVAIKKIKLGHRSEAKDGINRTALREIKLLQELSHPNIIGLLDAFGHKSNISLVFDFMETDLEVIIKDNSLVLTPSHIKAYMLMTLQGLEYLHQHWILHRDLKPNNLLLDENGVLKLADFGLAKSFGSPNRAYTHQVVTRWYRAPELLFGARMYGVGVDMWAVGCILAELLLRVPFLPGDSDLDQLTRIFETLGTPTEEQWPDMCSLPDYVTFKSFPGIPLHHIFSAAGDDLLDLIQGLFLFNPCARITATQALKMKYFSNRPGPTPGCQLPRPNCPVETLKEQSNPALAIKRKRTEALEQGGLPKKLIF
UniProt Q9H3Q1: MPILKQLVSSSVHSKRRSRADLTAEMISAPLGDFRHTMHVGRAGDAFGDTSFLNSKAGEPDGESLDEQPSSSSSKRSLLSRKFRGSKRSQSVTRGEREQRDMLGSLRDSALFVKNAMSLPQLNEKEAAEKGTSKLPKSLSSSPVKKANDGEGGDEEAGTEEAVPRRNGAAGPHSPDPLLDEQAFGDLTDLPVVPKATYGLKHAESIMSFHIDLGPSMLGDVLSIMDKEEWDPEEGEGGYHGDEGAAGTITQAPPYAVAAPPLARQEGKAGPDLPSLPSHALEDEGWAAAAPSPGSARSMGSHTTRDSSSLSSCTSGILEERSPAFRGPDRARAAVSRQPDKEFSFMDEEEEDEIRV
UniProt Q6ZU80: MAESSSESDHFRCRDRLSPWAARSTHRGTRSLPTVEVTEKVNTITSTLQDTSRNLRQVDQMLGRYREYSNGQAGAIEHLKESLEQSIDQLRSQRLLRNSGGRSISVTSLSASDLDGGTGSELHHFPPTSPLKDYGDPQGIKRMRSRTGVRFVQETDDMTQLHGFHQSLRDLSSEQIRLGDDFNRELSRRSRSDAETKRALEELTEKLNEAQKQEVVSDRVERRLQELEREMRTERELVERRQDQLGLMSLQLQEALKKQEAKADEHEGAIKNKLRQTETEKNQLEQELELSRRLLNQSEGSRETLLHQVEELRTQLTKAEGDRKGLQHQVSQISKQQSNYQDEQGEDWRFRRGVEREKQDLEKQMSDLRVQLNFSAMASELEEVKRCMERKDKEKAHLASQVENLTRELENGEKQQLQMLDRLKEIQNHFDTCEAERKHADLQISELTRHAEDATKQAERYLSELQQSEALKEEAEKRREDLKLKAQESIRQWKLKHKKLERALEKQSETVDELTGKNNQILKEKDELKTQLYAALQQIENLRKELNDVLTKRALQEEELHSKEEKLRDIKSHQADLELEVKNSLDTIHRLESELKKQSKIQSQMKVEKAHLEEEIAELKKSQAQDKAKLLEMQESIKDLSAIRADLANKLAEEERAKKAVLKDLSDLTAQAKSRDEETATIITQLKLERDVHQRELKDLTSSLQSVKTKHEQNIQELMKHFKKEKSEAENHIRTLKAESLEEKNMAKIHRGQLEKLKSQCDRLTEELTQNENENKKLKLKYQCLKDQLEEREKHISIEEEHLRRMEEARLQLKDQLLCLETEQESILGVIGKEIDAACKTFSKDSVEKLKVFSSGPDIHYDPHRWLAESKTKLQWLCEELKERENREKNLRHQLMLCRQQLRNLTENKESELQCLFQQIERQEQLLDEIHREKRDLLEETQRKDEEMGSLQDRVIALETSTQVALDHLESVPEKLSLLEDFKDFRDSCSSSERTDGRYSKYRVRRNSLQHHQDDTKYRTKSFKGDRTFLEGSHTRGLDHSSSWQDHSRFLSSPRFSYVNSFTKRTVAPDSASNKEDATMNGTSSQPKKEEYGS

What was measured:
Test in all cases: log2 fold change, soluble protein after heating vs DMSO (PISA); higher = thermal stabilisation; K562 cells, 10 uM, 30 min; active = over 0.2 and 3.5 SD of the protein, either way, in both replicates (recomputed)
[1] = compound: NC(=O)Nc1cc(-c2cccc(F)c2)sc1C(=O)N[C@H]1CCCNC1
How it was run: (§1)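 K562 cells at 2×10^6 cells/mL were exposed to 10 μM compound for 30 min, then aliquots were heated for 3 min across 48°C-58°C, pooled, and extracted in PBS containing 0.5% NP-40 at 4°C. The supernatant after 21,000xg for 90 min was taken as soluble protein and measured by TMTpro 16plex LC-MS/MS with channel sums equalised. Thermal stability is reported relative to control samples, with values from duplicates. Fold changes are given on a log2 scale.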

[2] = compound: NC(=O)c1cnc(N[C@@H]2CCCC[C@@H]2N)nc1Nc1cccc(-n2nccn2)c1
How it was run: as §1

[3] = compound: NC1(c2ccc(-c3nc4ccn5c(=O)[nH]nc5c4cc3-c3ccccc3)cc2)CCC1
How it was run: as §1

[4] = compound: NCC(=O)Nc1ccc(-n2nc(C(F)(F)F)cc2-c2ccc3c(ccc4ccccc43)c2)cc1
How it was run: as §1

entinostat = compound: Nc1ccccc1NC(=O)c1ccc(CNC(=O)OCc2cccnc2)cc1 [entinostat]
How it was run: as §1

vorinostat = compound: O=C(CCCCCCC(=O)Nc1ccccc1)NO [vorinostat]
How it was run: as §1

citarinostat = compound: O=C(CCCCCCNC(=O)c1cnc(N(c2ccccc2)c2ccccc2Cl)nc1)NO [citarinostat]
How it was run: as §1

silmitasertib = compound: O=C(O)c1ccc2c(c1)nc(Nc1cccc(Cl)c1)c1ccncc12 [silmitasertib]
How it was run: as §1

[5] = compound: O=C1NC(=O)C(c2cnc3ccccn23)=C1c1cn2c3c(cc(F)cc13)CN(C(=O)N1CCCCC1)CC2
How it was run: as §1

[6] = compound: c1cc(OCCN2CCCCC2)cc(-c2n[nH]c3ccc(-c4nnc[nH]4)cc23)c1
How it was run: as §1

With CDC42BPA isoform 6 (UniProt Q5VT25) the log2 fold change [1] was inactive: -0.325, the log2 fold change [2] was inactive: -0.334 and the log2 fold change [3] was inactive: -0.06. For the same target, the log2 fold change [4] was inactive: -0.003, the log2 fold change (entinostat) was inactive: 0.012 and the log2 fold change (vorinostat) was inactive: 0.051. For the same target, the log2 fold change (citarinostat) was inactive: 0.115, the log2 fold change (silmitasertib) was inactive: 0.11 and the log2 fold change [5] was inactive: -0.041. For the same target, the log2 fold change [6] was inactive: -0.203.

For CEP192 (UniProt Q8TEP8), the log2 fold change [1] was inactive: -0.334, the log2 fold change [2] was inactive: -0.283 and the log2 fold change [3] was inactive: 0.023. The log2 fold change [4] was inactive: 0.079, the log2 fold change (entinostat) was inactive: -0.157 and the log2 fold change (vorinostat) was inactive: -0.229. For the same target, the log2 fold change (citarinostat) was inactive: -0.205, the log2 fold change (silmitasertib) was inactive: -0.041 and the log2 fold change [5] was inactive: -0.312. For the same target, the log2 fold change [6] was inactive: -0.084.

CES2 isoform 4 (UniProt O00748) was tested, and the log2 fold change [1] was inactive: 0.116, the log2 fold change [2] was inactive: 0.017 and the log2 fold change [3] was inactive: -0.051. For the same target, the log2 fold change [4] was inactive: 0.095, the log2 fold change (entinostat) was inactive: -0.083 and the log2 fold change (vorinostat) was inactive: -0.017. For the same target, the log2 fold change (citarinostat) was inactive: -0.083, the log2 fold change (silmitasertib) was inactive: 0.076 and the log2 fold change [5] was inactive: 0.027. For the same target, the log2 fold change [6] was inactive: -0.016.

In the case of CEP44 (UniProt Q9C0F1), the log2 fold change [1] is reported as inactive: -0.064, the log2 fold change [2] is reported as inactive: -0.066 and the log2 fold change [3] is reported as inactive: -0.036. The log2 fold change [4] was inactive: 0.036, the log2 fold change (entinostat) was inactive: 0.026 and the log2 fold change (vorinostat) was inactive: 0.071. For the same target, the log2 fold change (citarinostat) was inactive: 0.084, the log2 fold change (silmitasertib) was inactive: 0.029 and the log2 fold change [5] was inactive: 0.023. For the same target, the log2 fold change [6] was inactive: 0.205.

In the case of CHD5 (UniProt Q8TDI0), the log2 fold change [1] is reported as inactive: 0.025, the log2 fold change [2] is reported as inactive: -0.11 and the log2 fold change [3] is reported as inactive: 0.029. The log2 fold change [4] was inactive: -0.016, the log2 fold change (entinostat) was inactive: 0.061 and the log2 fold change (vorinostat) was inactive: 0.09. For the same target, the log2 fold change (citarinostat) was inactive: 0.13, the log2 fold change (silmitasertib) was inactive: 0.074 and the log2 fold change [5] was inactive: -0.368. For the same target, the log2 fold change [6] was inactive: -0.077.

In the case of CEP76 (UniProt Q8TAP6), the log2 fold change [1] is reported as inactive: -0.05, the log2 fold change [2] is reported as inactive: -0.036 and the log2 fold change [3] is reported as inactive: -0.018. The log2 fold change [4] was inactive: 0.018, the log2 fold change (entinostat) was inactive: -0.031 and the log2 fold change (vorinostat) was inactive: -0.018. The log2 fold change (citarinostat) was inactive: -0.002, the log2 fold change (silmitasertib) was inactive: -0.012 and the log2 fold change [5] was inactive: -0.011. For the same target, the log2 fold change [6] was inactive: 0.002.

With CEP97 isoform 2 (UniProt Q8IW35) the log2 fold change [1] was inactive: -0.056, the log2 fold change [2] was inactive: 0.055 and the log2 fold change [4] was inactive: -0.126. The log2 fold change (entinostat) was inactive: 0.004, the log2 fold change (citarinostat) was inactive: 0.114 and the log2 fold change [5] was inactive: 0.099. The log2 fold change [6] was inactive: 0.032.

With CDKN2C (UniProt P42773) the log2 fold change [1] was inactive: 0.07, the log2 fold change [2] was inactive: 0.041 and the log2 fold change [3] was inactive: -0.004. The log2 fold change [4] was inactive: -0.024, the log2 fold change (entinostat) was inactive: 0.015 and the log2 fold change (vorinostat) was inactive: -0.179. For the same target, the log2 fold change (citarinostat) was inactive: 0.051, the log2 fold change (silmitasertib) was inactive: -0.004 and the log2 fold change [6] was inactive: -0.001.

In the case of CDC42SE2 (UniProt Q9NRR3), the log2 fold change [1] is reported as inactive: -0.021, the log2 fold change [2] is reported as inactive: 0.005 and the log2 fold change [3] is reported as inactive: 0.218. The log2 fold change [4] was inactive: 0.02, the log2 fold change (entinostat) was inactive: 0.038 and the log2 fold change (citarinostat) was inactive: 0.033. The log2 fold change (silmitasertib) was inactive: -0.123, the log2 fold change [5] was inactive: -0.038 and the log2 fold change [6] was inactive: -0.03.

With CENPO (UniProt Q9BU64) the log2 fold change [1] was inactive: 0.121, the log2 fold change [2] was inactive: -0.033 and the log2 fold change [3] was inactive: 0.245. For the same target, the log2 fold change [4] was inactive: 0.029, the log2 fold change (entinostat) was inactive: -0.23 and the log2 fold change (citarinostat) was inactive: -0.029. The log2 fold change (silmitasertib) was inactive: 0.177, the log2 fold change [5] was inactive: -0.075 and the log2 fold change [6] was inactive: -0.077.

For CDC73 (UniProt Q6P1J9), the log2 fold change [1] was inactive: -0.362, the log2 fold change [2] was inactive: -0.077 and the log2 fold change [3] was inactive: 0.295. For the same target, the log2 fold change [4] was inactive: -0.137, the log2 fold change (entinostat) was inactive: -0.286 and the log2 fold change (vorinostat) was inactive: -0.213. For the same target, the log2 fold change (citarinostat) was inactive: -0.219, the log2 fold change (silmitasertib) was inactive: 0.088 and the log2 fold change [5] was inactive: -0.556. For the same target, the log2 fold change [6] was inactive: -0.275.

For CDK7 (UniProt P50613), the log2 fold change [1] was inactive: -0.017, the log2 fold change [2] was inactive: -0.027 and the log2 fold change [3] was inactive: -0.003. The log2 fold change [4] was inactive: -0.03, the log2 fold change (entinostat) was inactive: 0.014 and the log2 fold change (vorinostat) was inactive: -0.007. The log2 fold change (citarinostat) was inactive: 0.03, the log2 fold change (silmitasertib) was inactive: 0.008 and the log2 fold change [5] was inactive: -0.042. For the same target, the log2 fold change [6] was inactive: -0.022.

With CFB (UniProt P00751) the log2 fold change [1] was inactive: -0.398, the log2 fold change [3] was inactive: 0.053 and the log2 fold change [4] was inactive: 0.069. For the same target, the log2 fold change (entinostat) was inactive: -0.277, the log2 fold change (vorinostat) was inactive: -0.057 and the log2 fold change (citarinostat) was inactive: -0.052. The log2 fold change (silmitasertib) was inactive: 0.101 and the log2 fold change [6] was inactive: 0.696.

CDC42EP4 (UniProt Q9H3Q1) was tested, and the log2 fold change [1] was inactive: -0.023, the log2 fold change [3] was inactive: -0.059 and the log2 fold change [4] was inactive: 0.171. The log2 fold change (entinostat) was inactive: 0.001, the log2 fold change (vorinostat) was inactive: 0.171 and the log2 fold change (citarinostat) was inactive: -0.011. The log2 fold change (silmitasertib) was inactive: 0.009, the log2 fold change [5] was inactive: 0.075 and the log2 fold change [6] was inactive: -0.078.

CHAF1A (UniProt Q13111) was tested, and the log2 fold change [1] was inactive: 0.087, the log2 fold change [2] was inactive: 0.046 and the log2 fold change [3] was inactive: 0.036. For the same target, the log2 fold change (entinostat) was inactive: -0.141, the log2 fold change (vorinostat) was inactive: 0.121 and the log2 fold change (citarinostat) was inactive: 0.005. For the same target, the log2 fold change (silmitasertib) was inactive: -0.019, the log2 fold change [5] was inactive: -0.167 and the log2 fold change [6] was active: -0.439.

For CEP128 (UniProt Q6ZU80), the log2 fold change [1] was inactive: -0.182, the log2 fold change [2] was inactive: -0.029 and the log2 fold change [3] was inactive: 0.095. For the same target, the log2 fold change [4] was inactive: -0.234, the log2 fold change (entinostat) was inactive: -0.112 and the log2 fold change (citarinostat) was inactive: -0.087. For the same target, the log2 fold change (silmitasertib) was inactive: -0.191 and the log2 fold change [6] was inactive: -0.068.
